Assay results taken from patent US8822528B2, “Monensin derivatives for the treatment and prevention of protozoal infections” (Merial Limited, priority 2010, dated 2014).
Some results were stated once for a whole list of compounds, not compound by compound.

Legend:
MDBK cells = experiment: Cytotoxicity testing / IC50 determination on MDBK cells (Cell Titer, tetrazolium to formazan, 96-well); assay type: cell-based, Bovine; conditions: no toxicity at a high concentration
Excerpt: Cytotoxicity testing. For the prevention and the treatment, a compound is considered effective when it is non toxic or its toxicity is low for host cells but high for the target (parasite). For cytotoxicity testing and determination of the IC50, the in vitro model is one of the best methods, enabling this type of testing to be carried out directly on cells alone without fear of fatal consequences as in vivo. The IC50 is the maximum concentration at which at least 50% of cells survive following a treatment. All concentrations above it are excluded for the test; values below it, on the other hand, can be tested in order to determine the concentration that will totally or partially eliminate the parasite or inhibit its development. This test consists in testing several concentrations on cell culture in 96-well plate; the concentrations are tested in duplicate, and the cytotoxicity of the molecules is evaluated with special kits based on an oxidation-reduction reaction at the cell-machinery level (mitochondria).
As in the MTT kit (Promega), the reagent used is the tetrazolium salt MTT (3-[4,5-dimethylthiazol-2-yl]-2,5-diphenyltetrazolium bromide). The tetrazolium ring that it contains is reduced to formazan by the mitochondrial succinate dehydrogenase of active living cells. The color of the medium thus changes from yellow to purplish-blue. The intensity of this color is proportional to the number of living cells present at the time of testing but also to their metabolic activity. The percentage of living cells is determined from the ratio between the absorbance for the test well and the absorbance for the control well (cells alone).
Initially, the inhibitory concentration IC50 was determined. It corresponded to the concentration of polyether ionophore allowing the viability of 50% of cells. Bovine cells were cultured and incubated for 24 hrs at 40° C. in the wells of a 96-well plate. Then, a fixed concentration ([…]) of polyether ionophore was added to each well. The cells were incubated at 40° C. for 24 hrs. 20 μL, of “Cell Titer” was added to each well. The cells were again incubated for 30 min to 1 hour at 40° C. before the plate was read in a plate reader at a wavelength of 490 nm (maximum absorption of the formazan). This reading determined the optical density (OD) of each well and allowed access to the percentage of inhibition. I50=(ODtreated/ODcontrol)×100 […]=[1−(ODtreated/ODcontrol)]×100.
FIG. 26 represents a 96-well plate after adding “Cell Titer”. The intensity of colours depends on the toxicity of the polyether ionophore tested. Increasing color intensity corresponded to increasing number of living cells. The principle of “Cell Titer” is based on oxidation-reduction reactions that occur at the level of mitochondria in living cells, the tetrazolium contained in the “Cell Titer” is reduced to formazan (FIG. 26).

Eimeria tenella = experiment: In vitro efficacy against Eimeria tenella in infected MDBK cell culture (schizonts/merozoites counted microscopically); assay type: cell-based; conditions: third series; very low concentrations (FIG. 31B)
Description: Once the IC50 concentration was determined, the test was performed on infected cells. The working concentration chosen was always lower than IC50.
After having cultured cells at 40° C. in each well of a 96-well plate, they were treated with a specific concentration (<IC50, allowing the inhibition of parasites in over 50% of cells) of polyether ionophore. Then, the sporozoites of Eimeria tenella were excysted and the cells infected with purified sporozoites. After incubation for 24 hrs at 40° C., the medium was changed. The efficiency of molecules was evaluated microscopically after 40 hrs and 48 hrs. The release of merozoites was noted (FIG. 30B). Thus, in explicit cases, the merozoites released were counted; in ambiguous cases, the quantitative PCR ([…]) will be used. For each test, a positive control of treatment (with monensin 1a) and a positive control of infection was made.

Row | Structure (SMILES) | Concentration showing no toxicity for the MDBK cells (MDBK cells) | Concentration at which significant efficacy against Eimeria tenella was shown (Eimeria tenella)
1 | CCC1(C2OC(C3OC(O)(CO)C(C)CC3C)CC2C)CCC(C2(C)CCC3(CC(O)C(C)C(C(C)C(OC)C(C)C(=O)NCc4cccc(C(=O)OC)c4)O3)O2)O1 (stereo not shown) [Compound 3c, 1-(3-methylbenzoate)methylene Amidomonensin] | > 5e+10 µg/mL | –
2 | CCC1(C2OC(C3OC(O)(CO)C(C)CC3C)CC2C)CCC(C2(C)CCC3(CC(O)C(C)C(C(C)C(OC)C(C)C(=O)NC(C(=O)OC)c4ccc(F)cc4)O3)O2)O1 (stereo not shown) [Compound 4c, Methyl 2′-(monensinamido)-2′-(4′-fluorophenyl)acetate] | > 5e+10 µg/mL | –
3 | CCC1(C2OC(C3OC(CO)(OC)C(C)CC3C)CC2C)CCC(C2(C)CCC3(CC(O)C(C)C(C(C)C(OC)C(C)C(=O)O)O3)O2)O1 (stereo not shown) [Compound 8a, 25-Methoxymonensin] | > 5e+10 µg/mL | –
4 | CCC1(C2OC(C3OC4(COC(=O)CO4)C(C)CC3C)CC2C)CCC(C2(C)CCC3(CC(O)C(C)C(C(C)C(OC)C(C)C(=O)O)O3)O2)O1 (stereo not shown) [Compound 12, Oxo-dioxane Monensin] | – | < 0.39 µg/µL
5 | CCC12CCC(O1)C1(C)CCC3(CC(OC)C(C)C(O3)C(C)C(OC)C(C)C(=O)OCC3(OC)OC(C(C)CC3C)C3CC(C)C2O3)O1 (stereo not shown) [Compound 14a, 7,25-dimethoxylactone] | > 5e+10 µg/mL | –
6 | CCC1(C2OC(C3OC(=O)C(C)CC3C)CC2C)CCC(C2(C)CCC3(CC(=O)C(C)C(C(C)C(OC)C(C)C(=O)O)O3)O2)O1 (stereo not shown) [Compound 19, oxo-lactone Monensin] | > 5e+10 µg/mL | –
7 | CCC1(C2OC(C3OC(CO)(OCC(=O)O)C(C)CC3C)CC2C)CCC(C2(C)CCC3(CC(O)C(C)C(C(C)C(OC)C(C)C(=O)O)O3)O2)O1 (stereo not shown) [Compound 27, O-25-glycolic Acid Monensin] | – | < 0.39 µg/µL
